## Results from one PubChem assay

Data taken from PubChem BioAssay AID504749, deposited by NCATS (2011).

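A panel of P. falciparum strains inside erythrocytes is exposed to compounds for three days, then a DNA-binding dye reports the amount of parasite DNA.
Each compound was titrated across a series from about 0.000037 to 29 µM.
The number is the fitted AC50, the concentration giving a half-maximal change in signal; a lower value means higher potency, whether the curve shows a decrease or an increase.
Calls follow the curve class and fit quality: every row here is inconclusive, covering signal-raising curves and weak, poorly fitted, partial or highest-dose-only inhibition curves.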

Values are in µM.
Every entry below has the call inconclusive.
These entries are mostly ones the record files as inconclusive; other results of the assay are not listed here.
A potency from a partial, single-point or poor curve is only a rough figure.

| Compound | tested on / at | fitted potency (µM) | curve as filed |
|---|---|---|---|
| `C=C(CC)C(=O)c1ccc(OCC(=O)O)c(Cl)c1Cl` | ECU | 12.59 | inhibitor, single point |
| `C=C(CC)C(=O)c1ccc(OCC(=O)O)c(Cl)c1Cl` | CP191 | 12.59 | inhibitor, single point |
| `C=C(CC)C(=O)c1ccc(OCC(=O)O)c(Cl)c1Cl` | CP262 | 13.46 | inhibitor, single point |
| `C=C(CC)C(=O)c1ccc(OCC(=O)O)c(Cl)c1Cl` | CP329 | 19.01 | inhibitor, partial curve, poor fit |
| `C=C(CC)C(=O)c1ccc(OCC(=O)O)c(Cl)c1Cl` | DIV30 | 5.358 | inhibitor, single point |
| `C#C[C@]1(O)CC[C@H]2[C@@H]3CCC4=CC(=O)CCC4=C3C=C[C@@]21CC` | FAB9 | 10 | inhibitor, single point |
| `C#C[C@]1(O)CC[C@H]2[C@@H]3CCC4=CC(=O)CCC4=C3C=C[C@@]21CC` | DIV30 | 19.01 | inhibitor, single point |
| `C#C[C@]1(O)CC[C@H]2[C@@H]3CCC4=CC(=O)CCC4=C3C=C[C@@]21CC` | TAB113 | 1.122 | inhibitor, partial curve |
| `C#C[C@]1(O)CC[C@H]2[C@@H]3CCC4=CC(=O)CCC4=C3C=C[C@@]21CC` | GB4 | 12 | inhibitor, partial curve |
| `C#C[C@]1(O)CC[C@H]2[C@@H]3CCC4=CC(=O)CCC4=C3C=C[C@@]21CC` | PAD | 11.22 | inhibitor, partial curve, poor fit |
| `C#C[C@]1(O)CC[C@H]2[C@@H]3CCC4=CC(=O)CCC4=C3C=C[C@@]21CC` | CP286 | 12.59 | inhibitor, partial curve |
| `C#C[C@]1(O)CC[C@H]2[C@@H]3CCC4=CC(=O)CCC4=C3C=C[C@@]21CC` | C2A | 12.59 | inhibitor, partial curve, poor fit |
| `C#C[C@]1(O)CC[C@H]2[C@@H]3CCC4=CC(=O)CCC4=C3C=C[C@@]21CC` | AS120 | 12.59 | inhibitor, partial curve |
| `C#C[C@]1(O)CC[C@H]2[C@@H]3CCC4=CC(=O)CCC4=C3C=C[C@@]21CC` | CP256 | 11.22 | inhibitor, partial curve |
| `C#C[C@]1(O)CC[C@H]2[C@@H]3CCC4=CC(=O)CCC4=C3C=C[C@@]21CC` | CP297 | 19.01 | inhibitor, single point |
| `C#C[C@]1(O)CC[C@H]2[C@@H]3CCC4=CC(=O)CCC4=C3C=C[C@@]21CC` | TAB165 | 11.22 | inhibitor, partial curve |
| `C#C[C@]1(O)CC[C@H]2[C@@H]3CCC4=CC(=O)CCC4=C3C=C[C@@]21CC` | P93_24 | 12.59 | inhibitor, partial curve, poor fit |
| `C#C[C@]1(O)CC[C@H]2[C@@H]3CCC4=CC(=O)CCC4=C3C=C[C@@]21CC` | CP250 | 17.78 | inhibitor, single point |
| `C#C[C@]1(O)CC[C@H]2[C@@H]3CCC4=CC(=O)CCC4=C3C=C[C@@]21CC` | CP291 | 9.528 | inhibitor, partial curve, poor fit |
| `C#C[C@]1(O)CC[C@H]2[C@@H]3CCC4=CC(=O)CCC4=C3C=C[C@@]21CC` | Dd2 | 7.943 | inhibitor, partial curve, poor fit |
| `C#C[C@]1(O)CC[C@H]2[C@@H]3CCC4=CC(=O)CCC4=C3C=C[C@@]21CC` | CP266 | 0.0005 | inhibitor |
| `C#C[C@]1(O)CC[C@H]2[C@@H]3CCC4=CC(=O)CCC4=C3C=C[C@@]21CC` | CP215 | 6.012 | inhibitor, partial curve |
| `C#C[C@]1(O)CC[C@H]2[C@@H]3CCC4=CC(=O)CCC4=C3C=C[C@@]21CC` | CP185 | 12.59 | inhibitor, partial curve |
| `C#C[C@]1(O)CC[C@H]2[C@@H]3CCC4=CC(=O)CCC4=C3C=C[C@@]21CC` | CP203 | 7.569 | inhibitor, partial curve |
| `C#C[C@]1(O)CC[C@H]2[C@@H]3CCC4=CC(=O)CCC4=C3C=C[C@@]21CC` | CP238 | 14.13 | inhibitor, single point |
| `C#C[C@]1(O)CC[C@H]2[C@@H]3CCC4=CC(=O)CCC4=C3C=C[C@@]21CC` | CP329 | 7.569 | inhibitor, partial curve, poor fit |
| `C#C[C@]1(O)CC[C@H]2[C@@H]3CCC4=CC(=O)CCC4=C3C=C[C@@]21CC` | CP268 | 7.569 | inhibitor, partial curve |
| `C#C[C@]1(O)CC[C@H]2[C@@H]3CCC4=CC(=O)CCC4=C3C=C[C@@]21CC` | CP262 | 10.69 | inhibitor, partial curve, poor fit |
| `C#C[C@]1(O)CC[C@H]2[C@@H]3CCC4=CC(=O)CCC4=C3C=C[C@@]21CC` | CP194 | 9.528 | inhibitor, partial curve, poor fit |
| `C#C[C@]1(O)CC[C@H]2[C@@H]3CCC4=CC(=O)CCC4=C3C=C[C@@]21CC` | CP269 | 10.69 | inhibitor, single point |
| `C#C[C@]1(O)CC[C@H]2[C@@H]3CCC4=CC(=O)CCC4=C3C=C[C@@]21CC` | CP335 | 5.358 | inhibitor, partial curve |
| `C#C[C@]1(O)CC[C@H]2[C@@H]3CCC4=CC(=O)CCC4=C3C=C[C@@]21CC` | CP217 | 10 | inhibitor, partial curve |
| `C#C[C@]1(O)CC[C@H]2[C@@H]3CCC4=CC(=O)CCC4=C3C=C[C@@]21CC` | CP305 | 12 | inhibitor, single point |
| `C#C[C@]1(O)CC[C@H]2[C@@H]3CCC4=CC(=O)CCC4=C3C=C[C@@]21CC` | CP201 | 6.012 | inhibitor, partial curve |
| `C#C[C@]1(O)CC[C@H]2[C@@H]3CCC4=CC(=O)CCC4=C3C=C[C@@]21CC` | P94_40 | 11.22 | inhibitor, partial curve, poor fit |
| `C#C[C@]1(O)CC[C@H]2[C@@H]3CCC4=CC(=O)CCC4=C3C=C[C@@]21CC` | ATS189 | 15.85 | inhibitor, single point |
| `C#C[C@]1(O)CC[C@H]2[C@@H]3CCC4=CC(=O)CCC4=C3C=C[C@@]21CC` | CP325 | 13.46 | inhibitor, partial curve |
| `C#C[C@]1(O)CC[C@H]2[C@@H]3CCC4=CC(=O)CCC4=C3C=C[C@@]21CC` | SC27B | 4.467 | inhibitor, partial curve |
| `C#C[C@]1(O)CC[C@H]2[C@@H]3CCC4=CC(=O)CCC4=C3C=C[C@@]21CC` | DFO2036 | 5.012 | inhibitor, partial curve, poor fit |
| `C#C[C@]1(O)CC[C@H]2[C@@H]3CCC4=CC(=O)CCC4=C3C=C[C@@]21CC` | CP252 | 10 | inhibitor, partial curve |
| `C#C[C@]1(O)CC[C@H]2[C@@H]3CCC4=CC(=O)CCC4=C3C=C[C@@]21CC` | N140 | 12.59 | inhibitor, partial curve |
| `C#C[C@]1(O)CC[C@H]2[C@@H]3CCC4=CC(=O)CCC4=C3C=C[C@@]21CC` | CP260 | 10 | inhibitor, single point |
| `C#C[C@]1(O)CC[C@H]2[C@@H]3CCC4=CC(=O)CCC4=C3C=C[C@@]21CC` | CP265 | 12.59 | inhibitor, single point |
| `CN1CCC(Nc2ncc3ncnc(Nc4ccc(F)c(Cl)c4)c3n2)CC1` | CP256 | 10 | inhibitor, partial curve, poor fit |
| `CN1CCC(Nc2ncc3ncnc(Nc4ccc(F)c(Cl)c4)c3n2)CC1` | PC49 | 10 | inhibitor, single point |
| `CN1CCC(Nc2ncc3ncnc(Nc4ccc(F)c(Cl)c4)c3n2)CC1` | CP201 | 15.1 | inhibitor, single point |
| `CN1CCC(Nc2ncc3ncnc(Nc4ccc(F)c(Cl)c4)c3n2)CC1` | CP203 | 8.492 | inhibitor, partial curve |
| `CN1CCC(Nc2ncc3ncnc(Nc4ccc(F)c(Cl)c4)c3n2)CC1` | PC15 | 12.59 | inhibitor, single point |
| `CN1CCC(Nc2ncc3ncnc(Nc4ccc(F)c(Cl)c4)c3n2)CC1` | SC27B | 8.912 | inhibitor, single point |

Some entries from above, unchanged:

| Compound | tested on / at | fitted potency (µM) | curve as filed |
|---|---|---|---|
| `CN1CCC(Nc2ncc3ncnc(Nc4ccc(F)c(Cl)c4)c3n2)CC1` | CP203 | 8.492 | inhibitor, partial curve |
| `CN1CCC(Nc2ncc3ncnc(Nc4ccc(F)c(Cl)c4)c3n2)CC1` | PC15 | 12.59 | inhibitor, single point |
| `C#C[C@]1(O)CC[C@H]2[C@@H]3CCC4=CC(=O)CCC4=C3C=C[C@@]21CC` | CP256 | 11.22 | inhibitor, partial curve |
| `C#C[C@]1(O)CC[C@H]2[C@@H]3CCC4=CC(=O)CCC4=C3C=C[C@@]21CC` | CP329 | 7.569 | inhibitor, partial curve, poor fit |
| `C#C[C@]1(O)CC[C@H]2[C@@H]3CCC4=CC(=O)CCC4=C3C=C[C@@]21CC` | CP185 | 12.59 | inhibitor, partial curve |